# About 7,700 (2.3%) of roughly 330,000 compounds were called active. The inconclusive results got no clear call from the source; some entries with a clear call stand among them for comparison. Calls follow the shape of the dose curve; as a rule, active = well fitted inhibition curve with a large enough effect; inconclusive = small, poorly fitted or top-dose-only effect, or effect the other way; inactive = flat fitted curve, though single readings scatter. Potencies of inconclusive entries are doubtful fits and often do not repeat.
# Assay: qHTS screen for small molecules that inhibit ELG1-dependent DNA repair in human embryonic kidney (HEK293T) cells expressing luciferase-tagged ELG1; also: nearly all actives have a fitted effect of over 55% in size
# Details: HEK293T ELG1-luciferase reporter, luminescence, 16 h, DNA damage induced by 5-fluorouridine; activity change, negative = inhibition: at 46.1 µM (top of the series)
# In short: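 Reporter activity after DNA damage by 5-fluorouridine is monitored. Compound-treated cells incubate 16 hr at 37 °C, then ONE-Glo is added for 30 min before luminescence reading.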
# % is scaled to controls: 0 for no effect and ±100 for the full control effect; potency is read from the fitted curve at half-maximal effect.
Compound,Potency,"activity change, negative = inhibition"
O=C1CC(c2ccccc2Oc2cccc(Cl)c2)C(n2cncn2)C(=O)C1C1NCCc2ccccc21 (stereo unspecified),"inconclusive: 11.6 µM [inhibitor, partial curve, poor fit]",–
CCOc1cc(CNCCSc2nnnn2C)cc(Br)c1OCc1ccccc1,–,inactive: -23.5%
CCCNC(=O)C(=O)N/N=C/c1cccs1,"inconclusive: 25.9 µM [activator, single point]",–
CCOc1ccc(S(=O)(=O)N(C)CC(=O)NC2CC2)cc1,–,inactive: -13.1%
Cc1cc(C)nc(/N=C(\N)Nc2ccc(CC(=O)OC(C)C)cc2)n1,–,inactive: -3.2%
O=Cc1cn(CC(=O)N2CCCc3ccccc32)c2ccccc12,"inconclusive: 16.4 µM [inhibitor, partial curve]",–
O=C(Cn1cc([N+](=O)[O-])cn1)N1CCN(Cc2ccc3c(c2)OCO3)CC1,"inconclusive: 6.51 µM [inhibitor, partial curve]",–
COC(=O)c1ccc(Cn2cnc3ccccc3c2=O)cc1,–,inactive: 10.7%
CN(C)CCCN(C(=O)c1cccs1)c1nc(-c2ccccc2)cs1,–,inactive: 3.32%
COc1ccc(-n2cnnc2SCc2csc(-c3ccccc3)n2)cc1,–,inactive: -14.5%
COc1cc2nc(/C=C/c3cc(OC)c(OC)c(OC)c3)sc2cc1SC,active: 11.6 µM,–
CSCC[C@H](N)C(=O)NCC1CCC(C(=O)Nc2ccc3c(c2)OCO3)CC1 (stereo partly specified),–,inactive: 12.3%
N/C(=N\OC(=O)COc1ccc(Cl)cc1Cl)c1cccnc1,"inconclusive: 18.4 µM [activator, partial curve]",–
COc1ccc(C(=O)N=c2nc3ccccn3s2)cc1,"inconclusive: 0.259 µM [activator, full curve]",–
COc1cc(-c2cc(=O)c3c(O)cc(O)cc3o2)ccc1O,"inconclusive: 16.4 µM [activator, single point]",–
Cc1ccc(S(=O)(=O)C2(C(=O)NCc3ccccc3Cl)CC2)cc1,"inconclusive: 1.16 µM [inhibitor, single point]",–
COCCNC(=O)c1ccccc1N(Cc1ccccc1)S(=O)(=O)c1ccc(C)cc1,"inconclusive: 3.26 µM [inhibitor, single point]",–
COc1ccc(NC(=O)NC2(C(=O)N3CCN(C)CC3)CCCCC2)cc1,"inconclusive: 16.4 µM [activator, partial curve]",–
Cc1ccc(/C=N/n2c(-c3ccco3)n[nH]c2=S)cc1,–,inactive: 4.12%
CCn1c(=S)[nH]c2cc(Cl)ccc21,"inconclusive: 23.1 µM [activator, single point]",–
CN1C(=O)N(CC(=O)N2CCN(S(=O)(=O)Cc3ccccc3)CC2)C(=O)C12CCCCC2,–,inactive: 3.01%

# Exported with tabs: part of the list above.
Compound	Potency	activity change, negative = inhibition
COc1cc(-c2cc(=O)c3c(O)cc(O)cc3o2)ccc1O	inconclusive: 16.4 µM [activator, single point]	–
Cc1ccc(S(=O)(=O)C2(C(=O)NCc3ccccc3Cl)CC2)cc1	inconclusive: 1.16 µM [inhibitor, single point]	–

# Reference: PubChem BioAssay AID504467 (National Center for Advancing Translational Sciences (NCATS), 2011)
